Test results: paper PMC7444511
No constants are given. Whether binding was seen depends on the method and setting. For some assays here: Where a sequence is shown, tags or fusion partners need not be part of it.

T1: GCSF-R (extracellular domain fused to the Fc region of human IgG1) (UniProt Q99062)
T1 sequence: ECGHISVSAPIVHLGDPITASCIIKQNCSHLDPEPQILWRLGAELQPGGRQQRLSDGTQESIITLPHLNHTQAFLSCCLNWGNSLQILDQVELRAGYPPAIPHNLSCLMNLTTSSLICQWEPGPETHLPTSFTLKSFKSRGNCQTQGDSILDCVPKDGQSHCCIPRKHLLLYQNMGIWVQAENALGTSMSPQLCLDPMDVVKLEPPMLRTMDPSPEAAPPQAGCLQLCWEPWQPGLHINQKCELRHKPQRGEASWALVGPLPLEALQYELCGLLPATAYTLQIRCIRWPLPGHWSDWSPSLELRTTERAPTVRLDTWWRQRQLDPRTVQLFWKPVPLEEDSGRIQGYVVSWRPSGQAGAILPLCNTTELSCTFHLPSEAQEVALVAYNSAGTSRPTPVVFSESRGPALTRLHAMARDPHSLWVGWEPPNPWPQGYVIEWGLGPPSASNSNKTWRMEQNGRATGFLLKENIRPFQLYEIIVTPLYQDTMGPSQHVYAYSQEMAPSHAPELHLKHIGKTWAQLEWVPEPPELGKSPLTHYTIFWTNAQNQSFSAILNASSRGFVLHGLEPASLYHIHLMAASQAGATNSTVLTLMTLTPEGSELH

T2: G-CSF monomer (human), P09919
T2 chain: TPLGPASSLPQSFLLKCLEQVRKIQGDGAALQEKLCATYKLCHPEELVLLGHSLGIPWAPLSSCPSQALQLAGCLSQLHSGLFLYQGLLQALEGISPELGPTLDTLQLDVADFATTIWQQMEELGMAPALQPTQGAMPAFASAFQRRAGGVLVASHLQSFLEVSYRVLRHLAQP

B1: G-CSF monomer, P09919-2 31-204 (ligand)
chain: T2 chain

Tests used:
[1] = target: T1, GCSF-R (extracellular domain fused to the Fc region of human IgG1); assay: total internal reflection ellipsometry (TIRE); receptor-Fc held by its Fc region on protein G immobilised covalently on an 11-MUA monolayer on gold; 10 µg/mL of each protein in PBS pH 7.4; standard fully reversible Langmuir kinetics model; both purified
[2] = target: T2, G-CSF monomer (human), P09919; assay: SEC; calibrated SE-HPLC, TSK-gel G3000 SWXL, 0.1 M Na2HPO4, 0.1 M Na2SO4 pH 7.2, 0.6 mL/min, 22 °C; 10 µg of each protein loaded; both purified; conditions: remark: other sources report otherwise

Row | Molecule | binding [1] | binding [2]
1 | GCSF-Lα-SCF (from UniProt P09919-2 31-204; P21583 26-190) | no binding (tested: 10 µg/mL) | –
2 | B1 | – | no binding
